Reference: PubChem BioAssay AID1259308 (NCATS, 2017)
Here is a random part of about 59,000 reagents. About 1,510 of them (2.6%) count as active. 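Calls use total luciferase alone and ignore viability, so some active siRNAs may act by altering cell number.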 A number with no mark means an inactive call. Further read-outs or replicates are left out here.

Assay: 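Knock-downs that increase output of a recombinant reporter protein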 (primary screen)
Cells: human HEK293 embryonic kidney cells stably expressing firefly luciferase (HEK-CMV-Luc2-Hygro)
Knock-down reagent: single siRNA against human genes, 0.8 pmol siRNA per well
Timing: 72 h
Measurement: 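Reporter luminescence and viable-cell signal on separate replicate plates, given as percent of non-targeting control and median/MAD z-scores, plus per-cell luciferase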
Scale: total luciferase, z-score: higher = more reporter protein produced
Hit rule: 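Active when the median/MAD z-score for overall luciferase is greater than 3; a gene was taken forward for validation with new siRNAs if at least two of its three siRNAs passed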
Calls: active = raised luciferase; inactive = no rise

SPATA1 [SID160747550]: total luciferase, z-score = -0.36
SPATA1 [SID160747551]: total luciferase, z-score = -0.466
SPATA1 [SID160747552]: total luciferase, z-score = 1.12
TAFA1 [SID160767562]: total luciferase, z-score = 0.442
TAFA1 [SID160767563]: total luciferase, z-score = 0.153
TAFA1 [SID160767564]: total luciferase, z-score = 0.134
HES6 [SID160731508]: total luciferase, z-score = -1.02
HES6 [SID160731509]: total luciferase, z-score = 0.366
HES6 [SID160743713]: total luciferase, z-score = -0.189
DYNC2I1 [SID160742969]: total luciferase, z-score = 0.47
DYNC2I1 [SID160742970]: total luciferase, z-score = 0.256
DYNC2I1 [SID160742971]: total luciferase, z-score = -1.39

As entered above:
HES6 [SID160743713], total luciferase, z-score: -0.189
DYNC2I1 [SID160742970], total luciferase, z-score = 0.256
